In this assay the target is Ypt1p-TAP (S. cerevisiae) (UniProt P01123). Briefly: co-IP.

Amino acid sequences for entries named in this document (tags omitted).
UniProt P01123: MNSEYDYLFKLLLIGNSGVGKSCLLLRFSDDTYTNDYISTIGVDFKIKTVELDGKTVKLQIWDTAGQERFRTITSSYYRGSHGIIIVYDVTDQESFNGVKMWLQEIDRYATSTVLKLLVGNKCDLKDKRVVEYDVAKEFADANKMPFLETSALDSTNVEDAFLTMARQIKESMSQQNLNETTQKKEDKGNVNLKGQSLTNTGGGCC

These are yes or no findings as the source states them, for the method shown. Binding seen in cells or lysates may run through a third protein. Some results given as binding are weak or reduced against the parent protein; the word gives no strength.

B1: Tif4631p (protein, UniProt P39935 1-952)
chain: MTDETAHPTQSASKQESAALKQTGDDQQESQQQRGYTNYNNGSNYTQKKPYNSNRPHQQRGGKFGPNRYNNRGNYNGGGSFRGGHMGANSSNVPWTGYYNNYPVYYQPQQMAAAGSAPANPIPVEEKSPVPTKIEITTKSGEHLDLKEQHKAKLQSQERSTVSPQPESKLKETSDSTSTSTPTPTPSTNDSKASSEENISEAEKTRRNFIEQVKLRKAALEKKRKEQLEGSSGNNNIPMKTTPENVEEKGSDKPEVTEKTKPAEEKSAEPEVKQETPAEEGEQGEKGQIKEESTPKVLTFAERLKLKKQQKEREEKTEGKENKEVPVQEETKSAIESAPVPPSEQVKEETEVAETEQSNIDESATTPAIPTKSDEAEAEVEAEAGDAGTKIGLEAEIETTTDETDDGTNTVSHILNVLKDATPIEDVFSFNYPEGIEGPDIKYKKEHVKYTYGPTFLLQFKDKLNVKADAEWVQSTASKIVIPPGMGRGNRSRDSGRFGNNSSRGHDFRNTSVRNMDDRANSRTSSKRRSKRMNDDRRSNRSYTSRRDRERGSYRNEEKREDDKPKEEVAPLVPSANRWVPKFKSKKTEKKLAPDGKTELLDKDEVERKMKSLLNKLTLEMFDAISSEILAIANISVWETNGETLKAVIEQIFLKACDEPHWSSMYAQLCGKVVKELNPDITDETNEGKTGPKLVLHYLVARCHAEFDKGWTDKLPTNEDGTPLEPEMMSEEYYAAASAKRRGLGLVRFIGFLYRLNLLTGKMMFECFRRLMKDLTDSPSEETLESVVELLNTVGEQFETDSFRTGQATLEGSQLLDSLFGILDNIIQTAKISSRIKFKLIDIKELRHDKNWNSDKKDNGPKTIQQIHEEEERQRQLKNNSRSNSRRTNNSSNRHSFRRDAPPASKDSFITTRTYSQRNSQRAPPPKEEPAAPTSTATNMFSALMGESDDEE
As for B1, the binding entry is reported as “binds”.

B2: Rrp4p (protein, UniProt P38792 1-359)
chain: MSEVITITKRNGAFQNSSNLSYNNTGISDDENDEEDIYMHDVNSASKSESDSQIVTPGELVTDDPIWMRGHGTYFLDNMTYSSVAGTVSRVNRLLSVIPLKGRYAPETGDHVVGRIAEVGNKRWKVDIGGKQHAVLMLGSVNLPGGILRRKSESDELQMRSFLKEGDLLNAEVQSLFQDGSASLHTRSLKYGKLRNGMFCQVPSSLIVRAKNHTHNLPGNITVVLGVNGYIWLRKTSQMDLARDTPSANNSSSIKSTGPTGAVSLNPSITRLEEESSWQIYSDENDPSISNNIRQAICRYANVIKALAFCEIGITQQRIVSAYEASMVYSNVGELIEKNVMESIGSDILTAEKMRGNGN
B2: the binding entry was “binds”.

B3: Nrd1p (protein, UniProt P53617 1-575)
chain: MQQDDDFQNFVATLESFKDLKSGISGSRIKKLTTYALDHIDIESKIISLIIDYSRLCPDSHKLGSLYIIDSIGRAYLDETRSNSNSSSNKPGTCAHAINTLGEVIQELLSDAIAKSNQDHKEKIRMLLDIWDRSGLFQKSYLNAIRSKCFAMDISNNTANTASQQLSLDPKQRSKQILSNLKKSPPLNLNISLPTDLTSTDPAKQQAALFQVIAALQKHFKTLPSHTSVGTVAPPQAHTITEYGSRRERERERERYNSRRNRSRSPPAPFSQPSTGRKDRYPSVAQDQYSIGAPNTTFGTNNHHLYPDELNVSNNPHYRPKPVSYDSTLPPDHIKVYSRTLFIGGVPLNMKEWDLANVLKPFAEVQSVILNNSRKHAFVKVYSRHEAENVLQNFNKDGALPLRTRWGVGFGPRDCCDYQHGYSIIPMHRLTDADKKWSVSAQWGGTSGQPLVTGIVFEEPDIIVGEGVSSKAISQKMPTDSGRNGPRSGKPNKSGSISSISPVPYGNAPLASPPPQQYVQPMMQQPYGYAPNQPLPSQGPAAAAPPVPQQQFDPTAQLNSLMNMLNQQQQQQQQS
On to B3, for which the binding result is on record as “binds”.

B4: Nab3p (protein, UniProt P38996 1-802)
chain: MSDENHNSDVQDIPSPELSVDSNSNENELMNNSSADDGIEFDAPEEEREAEREEENEEQHELEDVNDEEEEDKEEKGEENGEVINTEEEEEEEHQQKGGNDDDDDDNEEEEEEEEDDDDDDDDDDDDEEEEEEEEEEGNDNSSVGSDSAAEDGEDEEDKKDKTKDKEVELRRETLEKEQKDVDEAIKKITREENDNTHFPTNMENVNYDLLQKQVKYIMDSNMLNLPQFQHLPQEEKMSAILAMLNSNSDTALSVPPHDSTISTTASASATSGARSNDQRKPPLSDAQRRMRFPRADLSKPITEEEHDRYAAYLHGENKITEMHNIPPKSRLFIGNLPLKNVSKEDLFRIFSPYGHIMQINIKNAFGFIQFDNPQSVRDAIECESQEMNFGKKLILEVSSSNARPQFDHGDHGTNSSSTFISSAKRPFQTESGDMYNDDNGAGYKKSRRHTVSCNIFVKRTADRTYAIEVFNRFRDGTGLETDMIFLKPRMELGKLINDAAYNGVWGVVLVNKTHNVDVQTFYKGSQGETKFDEYISISADDAVAIFNNIKNNRNNSRPTDYRAMSHQQNIYGAPPLPVPNGPAVGPPPQTNYYQGYSMPPPQQQQQQPYGNYGMPPPSHDQGYGSQPPIPMNQSYGRYQTSIPPPPPQQQIPQGYGRYQAGPPPQPPSQTPMDQQQLLSAIQNLPPNVVSNLLSMAQQQQQQPHAQQQLVGLIQSMQGQAPQQQQQQLGGYSSMNSSSPPPMSTNYNGQNISAKPSAPPMSHQPPPPQQQQQQQQQQQQQQQQPAGNNVQSLLDSLAKLQK
Turning to B4, the binding result is “binds”.

B5: Cbc1p (protein, UniProt P34160 1-861)
chain: MFNRKRRGDFDEDENYRDFRPRMPKRQRIPPVVQLCKEMMPDIRTIGESVKAFEDDIKFLSEAIMNEYGHEDYFNNALLSTLNAVVVEQPQKQAAIALLTMVVNSKNNVAGKSIINYFFEELQKWCKQTYNDEFKSTSNETGPWNKIKLILRFLSILSPMFLVDELINIYKSLFELSIELNNLDPGNRVPLSEAIYTNTLLNIPYLFFFNRNNDGLRTKVEELLAYVEQNYLVKTTDINLLREYNGEPPYEMVELVRVVLPNVKKALINNLEQLNELFPDWNHLLTPQTGDEGFNDALTLPSVDDLKSFVRLNKNFGSVDSMWKTPRYAFHVYLPNSAGNFETVVPISTYAGQLFNDIIIDLVESLEFNRKEVARQVITLDLFFKAGIFTEPGESIAQLIATYEENPLAPTFKIEDLAIETILGLIFKLPSVSQPFAYFYTLLVDICQNSPKAIAPVFGRAFRFFYSHLDSLDFELKLRYLDWFSIQMSNFNFSWKWNEWEDDSIKFGKYFYNPKVNFAKNLIQKELRLTSNFSEVEDSLPQEFTKYLDTSYIPRDQLINYYQSLFTGYTVEEDSVRKNDLYFRQEGVPMENTVRKILDYTHKANNSREVTELESILGELKNEYGSIISDFNRFVIILLVQAVTDSGSRSLSHANKYINDLKEDLKTIFAKIELDIETKEYIIIEAVLTFWNANPQTGFLVADAFKYAGLLTSRTIFTFIFNETGLKNNGLIEATAIEAVFRNLSQQISEENESGNNFEFVFERLCTIANSTIDLLDVNADEDIEIPKVNGEMDIDDIEDDKLDLKWKYFTVIGFIKSILRRYSHEYRELADKFIANIDNAIPHESTRRTISNWIQETKEV
As for B5, the binding entry is reported as “binds”.
